This passage reports binding results from US20100093634A1 (UNIVERSITY OF MARYLAND BALTIMORE, published 2010).

Test [1] has as its target T1, ARH from whole rat kidney extracts (rat) (UniProt D3ZAR1).
T1 sequence (looked up): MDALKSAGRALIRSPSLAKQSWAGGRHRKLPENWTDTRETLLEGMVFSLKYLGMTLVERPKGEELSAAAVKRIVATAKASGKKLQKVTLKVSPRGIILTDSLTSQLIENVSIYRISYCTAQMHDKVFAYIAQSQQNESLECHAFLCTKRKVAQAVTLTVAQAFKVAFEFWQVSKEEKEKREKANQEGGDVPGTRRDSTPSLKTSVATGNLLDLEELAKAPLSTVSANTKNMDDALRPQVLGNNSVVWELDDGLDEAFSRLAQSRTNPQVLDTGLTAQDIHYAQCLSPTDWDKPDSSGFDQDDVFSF
The test is described as follows: co-immunoprecipitation from whole rat kidney extracts, Western blot. On the technique in general: In western blotting, separated proteins are transferred to a membrane and probed.

Test [2] addresses T2, Recombinant His-tagged ARH protein (autosomal recessive hypercholesterolemia protein) (human) (UniProt Q5SW96).
T2 sequence: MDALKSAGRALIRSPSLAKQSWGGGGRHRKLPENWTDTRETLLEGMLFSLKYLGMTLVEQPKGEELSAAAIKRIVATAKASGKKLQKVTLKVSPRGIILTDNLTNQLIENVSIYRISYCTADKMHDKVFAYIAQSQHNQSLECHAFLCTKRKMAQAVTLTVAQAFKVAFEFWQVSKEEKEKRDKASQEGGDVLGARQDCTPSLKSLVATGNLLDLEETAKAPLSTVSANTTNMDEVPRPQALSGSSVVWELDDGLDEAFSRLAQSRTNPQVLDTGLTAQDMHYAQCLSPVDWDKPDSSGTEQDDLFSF
The test is described as follows: pull-down of the GST fusion on His-tagged adaptor on Ni-NTA beads, anti-GST Western blot.

These are yes or no findings as the source states them, for the method shown. Binding seen in cells or lysates may run through a third protein. Some binding calls cover weakened binding; strength is not graded here. For some assays here: Where a sequence is shown, tags or fusion partners need not be part of it.

B1: ROMK channel from whole rat kidney extracts (protein)
chain: MGASERSVFRVLIRALTERMFKHLRRWFITHIFGRSRQRARLVSKEGRCNIEFGNVDAQSRFIFFVDIWTTVLDLKWRYKMTVFITAFLGSWFLFGLLWYVVAYVHKDLPEFYPPDNRTPCVENINGMTSAFLFSLETQVTIGYGFRFVTEQCATAIFLLIFQSILGVIINSFMCGAILAKISRPKKRAKTITFSKNAVISKRGGKLCLLIRVANLRKSLLIGSHIYGKLLKTTITPEGETIILDQTNINFVVDAGNENLFFISPLTIYHIIDHNSPFFHMAAETLSQQDFELVVFLDGTVESTSATCQVRTSYVPEEVLWGYRFVPIVSKTKEGKYRVDFHNFGKTVEVETPHCAMCLYNEKDARARMKRGYDNPNFVLSEVDETDDTQM
For the molecule B1, in test [1], the binding entry is recorded as “binds”.

For the molecule EVETPHCAMCLYNEKDARARMKRGYDNPNFVLSEVDETDDTQM (peptide, not shown: a dimerising Fc or GST) [GST fusion of the wild-type (WT) ROMK1 C-terminus (amino acids 349-391)], the binding entry in test [2] is “binds”.
